Experimental data: PubChem BioAssay AID1159584 (Peter MacCallum Cancer Centre, 2016)
The whole screen tested about 18,000 reagents; below is an unselected part. No sequences are given here. Not stated in the record: the amount of reagent, the time to read-out.

Assay: 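Knock-downs that harm CDH1-null cells more than parental MCF10A cells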 (primary screen)
Cells: human MCF10A breast epithelial cells, parental and CDH1-null
Reagent: siRNA against human genes
Measurement: 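ATP luminescence (CellTiter-Glo) viability per line relative to mean mock wells over all plates, and the ratio of CDH1-null to parental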
Reading the numbers: CDH1-null / parental viability ratio: higher = CDH1-null cells survive relatively better than parental; CDH1-null viability vs mock: higher = more viable CDH1-null cells; parental viability vs mock: higher = more viable parental cells

gene knocked down | CDH1-null / parental viability ratio | CDH1-null viability vs mock (fraction of mock) | parental viability vs mock (fraction of mock)
CPNE6 | 0.85 | 0.68 | 0.8
FABP3 | 0.97 | 0.96 | 0.99
TRPV6 | 1.31 | 0.92 | 0.7
ARID5B | 1.05 | 0.84 | 0.8
STAC3 | 1.08 | 0.8 | 0.74
AAK1 | 0.89 | 0.64 | 0.72
MFSD6 | 0.89 | 0.78 | 0.88
DIS3L | 0.88 | 0.88 | 1
FCGRT | 0.95 | 0.78 | 0.82
PPP1R9B | 1.27 | 0.56 | 0.44
FBXL14 | 0.86 | 0.77 | 0.9
NDUFS8 | 0.97 | 1.14 | 1.17
HEXB | 0.95 | 0.82 | 0.86
CADPS | 0.79 | 0.57 | 0.72
NKX2-8 | 0.85 | 0.61 | 0.72
CD207 | 0.79 | 0.56 | 0.71
SFSWAP | 1.03 | 0.79 | 0.77
MYL7 | 1.38 | 0.8 | 0.58

The list goes on (3 carried over from the part before).
gene knocked down | CDH1-null / parental viability ratio | CDH1-null viability vs mock (fraction of mock) | parental viability vs mock (fraction of mock)
CD207 | 0.79 | 0.56 | 0.71
SFSWAP | 1.03 | 0.79 | 0.77
MYL7 | 1.38 | 0.8 | 0.58
AURKC | 0.95 | 0.76 | 0.8
GSAP | 1.17 | 0.96 | 0.82
PKMYT1 | 0.8 | 0.76 | 0.95
RPUSD1 | 0.92 | 0.94 | 1.02
ADGRG2 | 1.42 | 0.88 | 0.62
ABCG8 | 1.07 | 0.96 | 0.9
KCNQ5 | 1.17 | 0.84 | 0.72
RHO | 0.69 | 0.66 | 0.96
POU4F1 | 1.4 | 0.8 | 0.57
RCVRN | 1.22 | 0.55 | 0.45
GLS | 0.71 | 0.54 | 0.76
PTCHD3 | 0.86 | 0.64 | 0.74
SIGLEC11 | 1.63 | 0.62 | 0.38
CAVIN3 | 1.1 | 1.01 | 0.92
GCSAML | 1.08 | 0.98 | 0.91
FAM221A | 0.89 | 0.73 | 0.82
STX10 | 0.96 | 0.52 | 0.54
DCST1 | 1.13 | 0.95 | 0.84
OR56B4 | 1.39 | 0.89 | 0.64
CEP15 | 0.79 | 0.48 | 0.61
KCNK12 | 1.06 | 0.66 | 0.62
NDUFB1 | 0.9 | 0.6 | 0.67
LYG2 | 1.1 | 0.9 | 0.82
YPEL3 | 0.92 | 0.92 | 1
ELAVL4 | 1 | 0.89 | 0.89
FBXL15 | 1.2 | 0.55 | 0.46
SLC71A1 | 1.11 | 1.15 | 1.04
MISP | 0.94 | 0.84 | 0.89
